# Laboratory results taken from paper PMC10603050.
# Amino acid sequences for entries named in this document (tags omitted).
# UniProt Q14160: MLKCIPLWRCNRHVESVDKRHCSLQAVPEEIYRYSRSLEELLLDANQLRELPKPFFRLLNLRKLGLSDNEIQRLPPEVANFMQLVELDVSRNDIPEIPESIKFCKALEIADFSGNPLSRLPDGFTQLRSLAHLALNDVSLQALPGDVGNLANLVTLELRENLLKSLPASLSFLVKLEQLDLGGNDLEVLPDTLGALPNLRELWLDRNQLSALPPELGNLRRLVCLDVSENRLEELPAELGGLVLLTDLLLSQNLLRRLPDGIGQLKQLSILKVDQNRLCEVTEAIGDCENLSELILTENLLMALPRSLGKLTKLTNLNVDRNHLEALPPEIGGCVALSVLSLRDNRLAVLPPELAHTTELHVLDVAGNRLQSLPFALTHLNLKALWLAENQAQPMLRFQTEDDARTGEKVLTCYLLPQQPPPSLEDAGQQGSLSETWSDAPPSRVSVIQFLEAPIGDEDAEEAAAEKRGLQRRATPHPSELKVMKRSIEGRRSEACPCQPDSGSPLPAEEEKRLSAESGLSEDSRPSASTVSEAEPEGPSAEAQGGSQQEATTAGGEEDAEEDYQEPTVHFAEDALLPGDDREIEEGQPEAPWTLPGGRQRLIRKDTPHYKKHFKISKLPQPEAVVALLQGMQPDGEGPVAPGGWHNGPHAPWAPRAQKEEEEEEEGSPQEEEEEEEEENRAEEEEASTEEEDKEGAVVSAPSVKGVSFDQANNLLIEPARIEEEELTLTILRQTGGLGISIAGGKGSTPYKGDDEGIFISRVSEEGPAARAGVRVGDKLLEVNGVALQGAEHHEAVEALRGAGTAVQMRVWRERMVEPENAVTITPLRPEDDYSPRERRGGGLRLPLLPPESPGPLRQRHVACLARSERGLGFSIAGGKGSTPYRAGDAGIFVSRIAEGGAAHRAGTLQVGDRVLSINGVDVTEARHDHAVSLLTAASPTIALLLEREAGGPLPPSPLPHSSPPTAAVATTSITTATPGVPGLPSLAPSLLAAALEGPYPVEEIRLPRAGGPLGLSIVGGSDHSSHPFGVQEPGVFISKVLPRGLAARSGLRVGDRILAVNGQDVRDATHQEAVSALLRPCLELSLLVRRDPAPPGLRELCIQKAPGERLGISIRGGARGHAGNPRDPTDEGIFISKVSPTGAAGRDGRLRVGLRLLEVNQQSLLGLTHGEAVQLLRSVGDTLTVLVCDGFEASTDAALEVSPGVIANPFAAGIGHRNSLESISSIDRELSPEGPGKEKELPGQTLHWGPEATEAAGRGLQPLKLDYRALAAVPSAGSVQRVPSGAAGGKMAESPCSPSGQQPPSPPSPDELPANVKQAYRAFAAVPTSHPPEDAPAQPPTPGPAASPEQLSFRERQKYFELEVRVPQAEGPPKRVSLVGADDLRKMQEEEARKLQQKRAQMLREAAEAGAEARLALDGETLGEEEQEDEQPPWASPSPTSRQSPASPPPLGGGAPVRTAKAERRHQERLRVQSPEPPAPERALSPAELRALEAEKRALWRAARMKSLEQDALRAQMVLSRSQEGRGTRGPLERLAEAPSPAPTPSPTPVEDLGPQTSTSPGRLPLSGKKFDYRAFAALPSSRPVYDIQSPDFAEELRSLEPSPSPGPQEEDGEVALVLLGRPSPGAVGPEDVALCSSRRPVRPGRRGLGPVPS
# UniProt Q676U5: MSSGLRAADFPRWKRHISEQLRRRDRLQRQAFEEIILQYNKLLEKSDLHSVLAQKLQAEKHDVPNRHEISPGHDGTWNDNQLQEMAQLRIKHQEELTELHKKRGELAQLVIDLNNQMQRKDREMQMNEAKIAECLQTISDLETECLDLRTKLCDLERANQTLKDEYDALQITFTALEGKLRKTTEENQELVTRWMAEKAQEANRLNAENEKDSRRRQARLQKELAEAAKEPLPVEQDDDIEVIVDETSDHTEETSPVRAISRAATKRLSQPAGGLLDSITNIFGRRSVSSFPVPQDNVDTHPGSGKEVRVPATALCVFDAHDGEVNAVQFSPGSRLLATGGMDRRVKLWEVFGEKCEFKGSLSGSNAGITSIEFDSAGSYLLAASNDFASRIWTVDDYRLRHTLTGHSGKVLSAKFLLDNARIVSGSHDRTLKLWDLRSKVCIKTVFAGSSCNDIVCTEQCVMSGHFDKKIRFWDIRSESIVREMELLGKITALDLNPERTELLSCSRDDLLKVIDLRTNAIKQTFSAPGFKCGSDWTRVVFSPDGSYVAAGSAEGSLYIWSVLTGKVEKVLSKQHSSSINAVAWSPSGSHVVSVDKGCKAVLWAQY
# No constants are given. Whether binding was seen depends on the method and setting. Binding seen in cells or lysates may run through a third protein. Some results given as binding are weak or reduced against the parent protein; the word gives no strength.
# Key:
# Flag-tagged SCRIB = Flag-tagged SCRIB (UniProt Q14160); experiment: co-IP; Flag-SCRIB or Flag-ATG16L1 expressed in 293 T cells; lysate (25 mM Tris-HCl pH 7.4, 150 mM NaCl, 1% NP-40, 1 mM EDTA, 5% glycerol) precipitated with anti-Flag-tag antibody; western blot with antibodies against the indicated proteins
# Flag-tagged ATG16L1 = Flag-tagged ATG16L1 (UniProt Q676U5); experiment: as above
binding (Flag-tagged SCRIB),binding (Flag-tagged ATG16L1),Substance
binds,–,Atg16L1 (from UniProt Q676U5 1-607)
–,binds,Scribble (from UniProt Q14160 1-1655)
